Some entries share one result that the patent states for a list of compounds.
Tested on: human RBC
Experiment: Cellular antioxidant protection, CAP-e bioassay
Type: cell-based
Details: protection evident, IC50 not reached
Method: Cell-based antioxidant protection was measured via a CAP-e bioassay. […] The CAP-e bioassay was specifically designed to work with natural products and ingredients. The red blood cell (RBC) was used as the model cell type as it is an inert cell type, in contrast to other cell types such as PMN cells. The red blood cell-based assay was developed particularly to be able to assess antioxidants from complex natural products in a cell-based system, as well as help interpret subsequent data from more complex cellular models. Freshly purified human RBC are washed repeatedly in physiological saline, and then exposed to the test products. During the incubation with a test product, any antioxidant compounds able to cross the cell membrane can enter the interior of the RBC. […] The fluorescence intensity is evaluated. The low fluorescence intensity of untreated control cells serves as a baseline, and RBC treated with AAPH alone serve as a positive control for maximum oxidative damage. […] Based on the low fluorescence of the untreated control wells, and the high fluorescence of the cell cultures exposed to oxidative damage, the fluorescence intensity in cell cultures treated with test products prior to exposure to oxidative stress is used to calculate the percent inhibition of cellular oxidative stress.

SMILES: CC1=C(/C=C/C(C)=C/C=C/C(C)=C/C=C/C=C(C)/C=C/C=C(C)/C=C/C2=C(C)C(=O)[C@@H](O)CC2(C)C)C(C)(C)C[C@H](O)C1=O [Astaxanthin]
- level of protection (inhibition of cellular oxidative damage) reached: < 50%

Source: patent US20230116978A1, “METHOD FOR LIBERATING INTRACELLULAR MATERIAL FROM PLANT CELLS” (Deerland Enzymes, Inc., priority 2021, published 2023)
